# Some of the results follow.
# B1: Erv41-EDTA (Saccharomyces cerevisiae), Q04651 (protein)
# chain: MKFLVNVALVFMVVYISYIYAAAPEHHHHHHDYDIPTTENLYFQGAMGYIDQQYVVDSQVRDTVQINMDIYVNTKCDWLQINVRDQTMDRKLVLEELQLEEMPFFIPYDTKVNDINEIITPELDEILGEAIPAEFREKLDTRSFFDESDPNKAHLPEFNGCHVFGSIPVNRVSGELQITAKSLGYVASRKAPLEELKFNHVINEFSFGDFYPYIDNPLDNTAQFNQDEPLTTYVYYTSVVPTLFKKLGAEVDTNQYSVNDYRYLYKDVAAKGDKMPGIFFKYNFEPLSIVVSDVRL
# What was measured:
# Experiment in all cases: glycan array binding signal (z-score within array); higher = stronger binding
# Conditions in all cases: glycan notation: IUPAC condensed, linker removed
# [1] = target: Fuc(a1-3)[Gal(b1-4)]GlcNAc(b1-3)Gal(b1-3)[Fuc(a1-4)]GlcNAc
# How it was run: (§1)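 The binding signal is a Z-score computed within each array and averaged over linkers. Arrays of the same protein sequence at different concentrations or buffers were also averaged together. Data originate from 3228 arrays in the Consortium for Functional Glycomics database, kept only where the protein sequence was available.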
# [2] = target: Fuc(a1-3)[Gal(b1-4)]GlcNAc(b1-3)Gal(b1-4)[Fuc(a1-3)]GlcNAc
# How it was run: as §1
# [3] = target: Fuc(a1-3)[Gal(b1-4)]GlcNAc(b1-3)Gal(b1-4)[Fuc(a1-3)]GlcNAc(b1-3)Gal(b1-4)[Fuc(a1-3)]GlcNAc
# How it was run: as §1
# [4] = target: Fuc(a1-3)[Gal(b1-4)]GlcNAc(b1-3)GalNAc
# How it was run: as §1
# [5] = target: Fuc(a1-3)[Gal(b1-4)]GlcNAc(b1-6)GalNAc
# How it was run: as §1
# [6] = target: Fuc(a1-3)[Gal(b1-4)]GlcNAc(b1-6)[Gal(b1-3)GlcNAc(b1-3)]Gal(b1-4)Glc
# How it was run: as §1
# [7] = target: Fuc(a1-3)[Gal(b1-4)]GlcNAc6S
# How it was run: as §1
# [8] = target: Fuc(a1-3)[Gal3S(b1-4)]Glc
# How it was run: as §1
# [9] = target: Fuc(a1-3)[Gal3S(b1-4)]GlcNAc
# How it was run: as §1
# [10] = target: Fuc(a1-3)[Gal3S(b1-4)]GlcNAc6S
# How it was run: as §1
# [11] = target: Fuc(a1-3)[GalNAc(b1-4)]GlcNAc
# How it was run: as §1
# [12] = target: Fuc(a1-3)[GalNAc(b1-4)]GlcNAc6S
# How it was run: as §1
# [13] = target: Fuc(a1-4)GlcNAc
# How it was run: as §1
# [14] = target: Fuc(b1-3)GlcNAc
# How it was run: as §1
# [15] = target: Gal(a1-2)Gal
# How it was run: as §1
# [16] = target: Gal(a1-3)Gal
# How it was run: as §1
# [17] = target: Gal(a1-3)Gal(b1-3)GlcNAc
# How it was run: as §1
# [18] = target: Gal(a1-3)Gal(b1-3)GlcNAc(b1-2)Man
# How it was run: as §1
# [19] = target: Gal(a1-3)Gal(b1-3)GlcNAc(b1-2)Man(a1-3)[Gal(a1-3)Gal(b1-3)GlcNAc(b1-2)Man(a1-6)]Man(b1-4)GlcNAc(b1-4)GlcNAc
# How it was run: as §1
# [20] = target: Gal(a1-3)Gal(b1-3)GlcNAc(b1-3)GalNAc
# How it was run: as §1
# [21] = target: Gal(a1-3)Gal(b1-3)GlcNAc(b1-6)GalNAc
# How it was run: as §1
# [22] = target: Gal(a1-3)Gal(b1-3)[Fuc(a1-4)]GlcNAc(b1-2)Man(a1-3)[Gal(a1-3)Gal(b1-3)[Fuc(a1-4)]GlcNAc(b1-2)Man(a1-6)]Man(b1-4)GlcNAc(b1-4)GlcNAc
# How it was run: as §1
# [23] = target: Gal(a1-3)Gal(b1-4)Glc
# How it was run: as §1
# [24] = target: Gal(a1-3)Gal(b1-4)GlcNAc
# How it was run: as §1
# [25] = target: Gal(a1-3)Gal(b1-4)GlcNAc(b1-2)Man
# How it was run: as §1
# [26] = target: Gal(a1-3)Gal(b1-4)GlcNAc(b1-2)Man(a1-3)[Gal(a1-3)Gal(b1-4)GlcNAc(b1-2)Man(a1-6)]Man(b1-4)GlcNAc(b1-4)GlcNAc
# How it was run: as §1
# [27] = target: Gal(a1-3)Gal(b1-4)GlcNAc(b1-3)GalNAc
# How it was run: as §1
# [28] = target: Gal(a1-3)Gal(b1-4)GlcNAc(b1-6)GalNAc
# How it was run: as §1
# [29] = target: Gal(a1-3)Gal(b1-4)[Fuc(a1-3)]GlcNAc
# How it was run: as §1
# [30] = target: Gal(a1-3)Gal(b1-4)[Fuc(a1-3)]GlcNAc(b1-2)Man(a1-3)[Gal(a1-3)Gal(b1-4)[Fuc(a1-3)]GlcNAc(b1-2)Man(a1-6)]Man(b1-4)GlcNAc(b1-4)GlcNAc
# How it was run: as §1
# [31] = target: Gal(a1-3)GalNAc
# How it was run: as §1
# [32] = target: Gal(a1-3)[Gal(a1-4)]Gal(b1-4)GlcNAc
# How it was run: as §1
# [33] = target: Gal(a1-4)Gal(b1-3)GlcNAc(b1-2)Man(a1-3)[Gal(a1-4)Gal(b1-3)GlcNAc(b1-2)Man(a1-6)]Man(b1-4)GlcNAc(b1-4)GlcNAc
# How it was run: as §1
# [34] = target: Gal(a1-4)Gal(b1-4)Glc
# How it was run: as §1
# [35] = target: Gal(a1-4)Gal(b1-4)GlcNAc
# How it was run: as §1
# [36] = target: Gal(a1-4)Gal(b1-4)GlcNAc(b1-2)Man(a1-3)[Gal(a1-4)Gal(b1-4)GlcNAc(b1-2)Man(a1-6)]Man(b1-4)GlcNAc(b1-4)GlcNAc
# How it was run: as §1
# [37] = target: Gal(a1-4)Gal(b1-4)GlcNAc(b1-3)Gal(b1-4)Glc
# How it was run: as §1
# [38] = target: Gal(a1-4)GlcNAc
# How it was run: as §1
binder,measurement,setting,value
B1,glycan array binding signal (z-score),[1],-0.893
same,glycan array binding signal (z-score),[2],0.341
same,glycan array binding signal (z-score),[3],-0.434
same,glycan array binding signal (z-score),[4],0.188
same,glycan array binding signal (z-score),[5],0.701
same,glycan array binding signal (z-score),[6],-0.248
same,glycan array binding signal (z-score),[7],0.213
same,glycan array binding signal (z-score),[8],-0.042
same,glycan array binding signal (z-score),[9],0.26
same,glycan array binding signal (z-score),[10],0.891
same,glycan array binding signal (z-score),[11],-0.82
same,glycan array binding signal (z-score),[12],-0.156
same,glycan array binding signal (z-score),[13],0.581
same,glycan array binding signal (z-score),[14],0
same,glycan array binding signal (z-score),[15],-1.08
same,glycan array binding signal (z-score),[16],-0.247
same,glycan array binding signal (z-score),[17],-0.59
same,glycan array binding signal (z-score),[18],0.946
same,glycan array binding signal (z-score),[19],1.34
same,glycan array binding signal (z-score),[20],0.17
same,glycan array binding signal (z-score),[21],0.496
same,glycan array binding signal (z-score),[22],-0.414
same,glycan array binding signal (z-score),[23],-0.338
same,glycan array binding signal (z-score),[24],-0.563
same,glycan array binding signal (z-score),[25],-1.32
same,glycan array binding signal (z-score),[26],0.731
same,glycan array binding signal (z-score),[27],-0.713
same,glycan array binding signal (z-score),[28],1.24
same,glycan array binding signal (z-score),[29],-0.74
same,glycan array binding signal (z-score),[30],2.1
same,glycan array binding signal (z-score),[31],-0.938
same,glycan array binding signal (z-score),[32],-0.005
same,glycan array binding signal (z-score),[33],-0.424
same,glycan array binding signal (z-score),[34],-0.555
same,glycan array binding signal (z-score),[35],0.534
same,glycan array binding signal (z-score),[36],0.57
same,glycan array binding signal (z-score),[37],-0.832
same,glycan array binding signal (z-score),[38],-0.335

# Two entries drawn at random from the list so far:
binder,measurement,setting,value
B1,glycan array binding signal (z-score),[12],-0.156
same,glycan array binding signal (z-score),[29],-0.74

# Reference: the supplement of paper PMC8728848
